These are yes or no findings as the source states them, for the method shown. In cells and extracts the contact can be indirect. Binding can be weak; no strength is given. Tags and fused reporters may be left off the sequences shown.

The values below come from patent US20200129532A1.

This experiment deals with T1, HA-tagged VDR (vitamin D receptor), wild type (human) (UniProt P11473).
T1 sequence (acetylated lysine at 91 (K91Ac), looked up): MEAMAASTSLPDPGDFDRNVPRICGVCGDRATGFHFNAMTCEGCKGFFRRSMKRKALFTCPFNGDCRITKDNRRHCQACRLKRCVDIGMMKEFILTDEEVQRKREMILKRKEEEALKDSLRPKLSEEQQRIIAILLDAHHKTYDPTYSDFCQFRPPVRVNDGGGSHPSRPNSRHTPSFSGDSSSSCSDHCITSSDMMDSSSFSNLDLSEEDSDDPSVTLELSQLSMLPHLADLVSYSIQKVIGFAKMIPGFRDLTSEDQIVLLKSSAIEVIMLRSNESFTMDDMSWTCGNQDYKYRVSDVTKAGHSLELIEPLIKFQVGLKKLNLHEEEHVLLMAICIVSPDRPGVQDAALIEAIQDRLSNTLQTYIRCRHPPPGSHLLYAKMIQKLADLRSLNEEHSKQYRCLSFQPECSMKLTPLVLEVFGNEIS
As to the kind of experiment: co-immunoprecipitation of endogenous PCAF with HA-VDR from INS1 cells, Western blot (FIG. 4K). For orientation: A western blot detects proteins with antibodies after separation by electrophoresis.

endogenous PCAF (INS1 cells) (enzyme): the binding entry was “binds”.
